Experimental data: patent publication US20240317840A1

Assays:
[1] = target: HBsAg of HBV genotype B (AF 121245) (Hepatitis B virus); assay: sandwich ELISA: HBsAg from culture supernatant captured on horse polyclonal anti-HBsAg, antibody titrated, HRP anti-human IgG Fab, A450
[2] = target: HBsAg of HBV genotype C (DQ087960) (Hepatitis B virus); assay: as above
[3] = target: HBsAg AD serotype (Hepatitis B virus); assay: SPR (Biacore), HBsAg particles immobilised on CM5 chip, antibody injected in 2-fold dilutions from 128 nM
[4] = target: HBsAg AY serotype (Hepatitis B virus); assay: as above
[5] = target: HBsAg of HBV genotype B (AF 121245) (Hepatitis B virus); assay: sandwich ELISA
[6] = target: HBsAg of HBV genotype C (DQ087960) (Hepatitis B virus); assay: sandwich ELISA

Measured: binding

B1: NOV3837 (antibody, human IgG1, kappa, V domains shown)
VH: QVQLQESGGRLVRPGGSLRLSCAASGFIFTDYYMTWIRQAPGKGPEWIAFITSGGETTYYADSVKGRFTISRDNAKKSLFLQMYSLRADDTAVYYCVRAHFDGYQYDTRGDFTYYFDNWGLGTLVSVSS
VL: EIVMTQSPATLSVSPGERVTLSCRASQSVSSSLAWYQQKPGRAPRLLIYGASTRATGVPARFSGGGSGTDFTLTISSLQSEDFAVYYCHQYINWPPGDTFGQGTRLDIKR
binds: all assays above

B2: NOV3838 (antibody, human IgG1, kappa, V domains shown)
VH: QVQLQESGGRLVRPGGSLRLSCAASGFIFTDYYMTWIRQAPGKGPEWIAFITSGGETTYYADSVKGRFTISRDNAKKSLFLQMYSLRADDTAVYYCVRAHFDLYQYDTRGDFTYYFDNWGLGTLVSVSS
VL: EIVMTQSPATLSVSPGERVTLSCRASQSVSSSLAWYQQKPGRAPRLLIYGASTRATGVPARFSGGGSGTDFTLTISSLQSEDFAVYYCHQYINWPPGDTFGQGTRLDIKR
binds: all assays above

B3: NOV3839 (antibody, human IgG1, kappa, V domains shown)
VH: QVQLQESGGRLVRPGGSLRLSCAASGFIFTDYYMTWIRQAPGKGPEWIAFITSGGETTYYADSVKGRFTISRDNAKKSLFLQMYSLRADDTAVYYCVRAHFDIYQYDTRGDFTYYFDNWGLGTLVSVSS
VL: EIVMTQSPATLSVSPGERVTLSCRASQSVSSSLAWYQQKPGRAPRLLIYGASTRATGVPARFSGGGSGTDFTLTISSLQSEDFAVYYCHQYINWPPGDTFGQGTRLDIKR
binds: all assays above

B4: NOV3834 (antibody, human IgG1, kappa, V domains shown)
VH: QVQLVESGGGVVQPGRSLRLSCAASGFTFNRYGMHWVRQAPGKGLEWVAGIWHDGSHKYYADSLRGRFTISRDNAKNTLDLQLNRLRAEDTSVYYCVRQTNRGRLDDAFDIWGQGTMVTVSS
VL: DIQMTQSPSSLSAAVGDRVTISCRASQTISSYLNWYQQKPGEAPKLLIYAASTLQSGVPSRFGGSGSGTDFTLTISSLQPEDSATYYCQQNYDTLWTFGQGTKVEIKR
binds: all assays above

B5: NOV3840 (antibody, human IgG1, lambda, V domains shown)
VH: EVQLLESGGGLVQPGGSRRLSCAASGFTFSYYGMNWVRQAPGKGLEWVSGITNSGSITYYADSVKGRFSISRDNSKNTLFLQMNSLRAEDTAVYYCAKVGVRSSSGMWDLDYWGQGTLVTVSS
VL: SYVLTQPPSVSVAPGQTARLSCGGNNIGSKSLQWYQQKPGQAPVLVVNDDSDRPSGIPERFSGSNSGNTATLTISRVEAGDEADYYCQVWDTSSDHVVFGGGTKLTVLG
binds: all assays above

B6: NOV3842 (antibody, human IgG1, lambda, V domains shown)
VH: EVQLLESGGGLVQPGGSRRLSCAASGFTFSYYGMNWVRQAPGKGLEWVSGITNVGSITYYADTVKGRFSISRDNSKNTLFLQMNSLRAEDTAVYYCAKVGVRSSSGMWDLDYWGQGTLVTVSS
VL: SYVLTQPPSVSVAPGQTARLSCGGNNIGSKSLQWYQQKPGQAPVLVVNDESDRPSGIPERFSGSNSGNTATLTISRVEAGDEADYYCQVWDTSSDHVVFGGGTKLTVLG
binds: all assays above

B7: NOV3841 (antibody, human IgG1, lambda, V domains shown)
VH: EVQLLESGGGLVQPGGSRRLSCAASGFTFSYYGMNWVRQAPGKGLEWVSGITQSGSITYYADTVKGRFSISRDNSKNTLFLQMNSLRAEDTAVYYCAKVGVRSSSGMWDLDYWGQGTLVTVSS
VL: SYVLTQPPSVSVAPGQTARLSCGGNNIGSKSLQWYQQKPGQAPVLVVNDESDRPSGIPERFSGSNSGNTATLTISRVEAGDEADYYCQVWDTSSDHVVFGGGTKLTVLG
binds: all assays above

B8: NOV3357 (antibody, human IgG1, kappa, V domains shown)
VH: EVQLLESGGGLVQPGGSLRLSCAASGFTFSPHAMSWVRQAPGKGLEWVSAISDSGGSTHYADSVKGRFTISRDNSKNTLYLQMNSLRAEDTAVYYCARDDDGWSGYDYWFDYWGQGTLVTVSS
VL: DIQMTQSPSSLSASVGDRVTITCRASQSISPYLNWYQQKPGKAPKLLIYAADSLQSGVPSRFSGSGSGTDFTLTISSLQPEDFATYYCQQSYKIPLTFGQGTKVEIKR
binds: all assays above

B9: NOV3540 (antibody, human IgG1, kappa, V domains shown)
VH: EVQLLESGGGLVQPGGSLRLSCAASGFTFSPHAMSWVRQAPGKGLEWVSAISDSGGSTHYADSVKGRFTISRDNSKNTLYLQMNSLRAEDTAVYYCARDDDAWSGYDYWFDYWGQGTLVTVSS
VL: DIQMTQSPSSLSASVGDRVTITCRASQSISPYLNWYQQKPGKAPKLLIYAADSLQSGVPSRFSGSGSGTDFTLTISSLQPEDFATYYCQQSYKIPLTFGQGTKVEIKR
binds: all assays above

B10: NOV3831 (antibody, human IgG1, lambda, V domains shown)
VH: EMQVLESGGGLVQPGGSLRLSCAASGFTFNNYAMSWVRQVPGKGLEWVSSISGSGGSTYYADSVKGQFTISRDNSKNTLYLQMNSLRAEDTAVYYCAKSSILSGGHARVYGIDVWGQGTTVTVSS
VL: QSALTQPPSVSVAPGQTARITCGGNNIGSQSVHWYQQKPGQAPILVVYDDTDRPSGIPARFSGSSSGSTATLTIGRVEAGDEADYYCQVWDSSSDHVVFGGGTKLTVLS
binds: all assays above

B11: NOV3833 (antibody, human IgG1, lambda, V domains shown)
VH: EMQVLESGGGLVQPGGSLRLSCAASGFTFHNYAMSWVRQVPGKGLEWVSSISGSGGSTYYADSVKGQFTISRDNSKNTLYLQMNSLRAEDTAVYYCAKSSILSGGHARVYGIDVWGQGTTVTVSS
VL: QSALTQPPSVSVAPGQTARITCGGNNIGSQSVHWYQQKPGQAPILVVYDDTDRPSGIPARFSGSSSGSTATLTIGRVEAGDEADYYCQVWDSSSDHVVFGGGTKLTVLS
binds: all assays above

B12: NOV3832 (antibody, human IgG1, lambda, V domains shown)
VH: EMQVLESGGGLVQPGGSLRLSCAASGFTFDNYAMSWVRQVPGKGLEWVSSISGSGGSTYYADSVKGQFTISRDNSKNTLYLQMNSLRAEDTAVYYCAKSSILSGGHARVYGIDVWGQGTTVTVSS
VL: QSALTQPPSVSVAPGQTARITCGGNNIGSQSVHWYQQKPGQAPILVVYDDTDRPSGIPARFSGSSSGSTATLTIGRVEAGDEADYYCQVWDSSSDHVVFGGGTKLTVLS
binds: all assays above

These are yes or no findings as the source states them, for the method shown. Binding calls can cover weak binding; strength is not graded here.
